Measurements as given in PubChem BioAssay AID1688 (National Center for Advancing Translational Sciences (NCATS), 2009).
The campaign covered roughly 220,000 compounds. About 2,400 (1.1%) were called active. The inconclusive results got no clear call from the source; some entries with a clear call stand among them for comparison. Calls follow the shape of the dose curve; as a rule, active = well fitted inhibition curve with a large enough effect; inconclusive = small, poorly fitted or top-dose-only effect, or effect the other way; inactive = no such curve, though single readings can be large or run the other way. A potency beside an inconclusive call is a rough fit, not a confirmed value.

Experiment: qHTS Multiplex Assay to Identify Dual Action Probes in a Cell Model of Huntington: Aggregate Formation (GFP); also: nearly all actives have a fitted effect of over 60% in size
Settings: PC12 HttQ103-GFP aggregates, Acumen cytometry, 40 h; activity change, negative = inhibition: at 46.1 µM (top of the series) unless noted
Method in brief: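 PC12/HTTQ103-GFP, ecdysone-inducible; teb 100 nM; cpd qHTS titration; GFP aggregates read on laser cytometer, Ex 488/Em 500-530 nm.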
% is scaled to controls: 0 for no effect and ±100 for the full control effect; potency is read from the fitted curve at half-maximal effect.

Row | Structure (SMILES) | Potency | activity change, negative = inhibition
1 | CCn1c(SCC(N)=O)nc2c1c(=O)n(C)c(=O)n2C | inconclusive: 35.5 µM [inhibitor, single point] | –
2 | N#Cc1c(NC(=O)Cn2c(=O)oc3ccccc32)oc(-c2ccccc2)c1-c1ccccc1 | active: 20 µM | –
3 | COCCNC(=O)/C(C#N)=C/c1ccc(N2CCOCC2)o1 | inconclusive: 11.2 µM [activator, partial curve] | –
4 | CCc1ccc2c(c1)C(NC(C)=O)C(=O)N2CC (stereo not given) | – | inactive: 5.15%
5 | Cc1cc(C)n(Cc2ccc(NC(=O)c3ccc(COc4ccccc4Br)cc3)cc2)n1 | inconclusive: 25.1 µM [inhibitor, single point] | –
6 | CC[n+]1c(/C=C/N(C)c2ccccc2)oc2ccccc21 | inconclusive: 0.891 µM [inhibitor, full curve, poor fit] | –
7 | CC1Cc2nc(SCC(=O)Nc3nccs3)n(Cc3ccccc3)c(=O)c2S1 (stereo not given) | inconclusive: 17.8 µM [inhibitor, partial curve] | –
8 | Cc1cc(N2CCOCC2)nc(NCc2ccccc2)n1 | inconclusive: 14.1 µM [inhibitor, partial curve] | –
9 | O=C(Nc1nnc(CSCc2ccc(F)cc2)s1)c1cccc([N+](=O)[O-])c1 | inconclusive: 12.6 µM [inhibitor, single point] | –
10 | CCOC(=O)c1c(C)nc2sc(C(N)=O)c(N)c2c1-c1ccccc1 | inconclusive: 35.5 µM [inhibitor, single point] | –
11 | CCSc1nc2[nH]ncc2c(=O)[nH]1 | – | inactive: 1.19%
12 | Nc1ccc2nc(-c3cc(Cl)c(N)c(Cl)c3)[nH]c2c1 | inconclusive: 3.16 µM [activator, partial curve] | –
13 | CC(=O)c1ccc(C(=O)N2CCCC(CCC(=O)N(C)CCc3ccccn3)C2)s1 (stereo not given) | – | inactive: 33.8% [at 9.22 µM]
14 | NC(=O)c1cc2ccncc2c2ccccc12 | active: 2.51 µM | –
15 | CCOC(=O)N1CCN(Cc2ccccc2Cl)CC1 | – | inactive: 0.0367%
16 | COc1cc(C2C(C#N)=C(N)Oc3cc(N(C)C)ccc32)cc2c1OCO2 (stereo not given) | inconclusive: 0.178 µM [inhibitor, full curve, poor fit] | –
17 | Oc1ccc2ccccc2c1/C=N/Nc1nnc(-c2ncc[nH]2)c2ccccc12 | active: 0.794 µM | –
18 | CCOC(=O)c1c(C)n(OCc2ccccc2)c2ccc3nonc3c12 | – | inactive: 10.2%
19 | Nc1nc(-c2ccccc2)c(-c2ccc([N+](=O)[O-])cc2)s1 | inconclusive: 17.8 µM [inhibitor, single point] | –
20 | CCn1cc([N+](=O)[O-])c(C(=O)Nc2nc(-c3ccc(C)cc3)c(C)s2)n1 | inconclusive: 14.1 µM [activator, partial curve] | –
21 | C=CCN1C(=O)C(CC(=O)Nc2ccc(OC)cc2)SC1=Nc1ccc(S(N)(=O)=O)cc1 (stereo not given) | – | inactive: -15.7%
22 | N#C/C(=C(/O)c1ccc(-c2cccc([N+](=O)[O-])c2)o1)c1nc2ccccc2s1 | active: 11.2 µM | –
23 | NC(=S)N/N=C/c1coc2ccc(Br)cc2c1=O | inconclusive: 2.24 µM [inhibitor, partial curve] | –
24 | COC(=O)Cc1c[nH]c2cccc(OCC(O)CN(Cc3ccc([N+](=O)[O-])cc3)C(C)(C)C)c12 (stereo not given) | – | inactive: 8.3%

Row | Structure (SMILES) | Potency | activity change, negative = inhibition
25 | Nc1ccc(O)c2c1C(=O)c1ccccc1C2=O | – | inactive: -3.31%
26 | Cc1ccc(Cl)cc1NC(=O)c1cnn2c1NC(c1ccco1)CC2C(F)(F)F (stereo not given) | – | inactive: -0.258% [at 9.22 µM]
27 | COc1ccc(-c2ncccc2OC(=O)C23CC4CC(CC(C4)C2)C3)cc1OC | inconclusive: 1.78 µM [inhibitor, partial curve] | –
28 | O=C(/C=C/c1ccco1)Nc1ccc(-c2nc3ccccc3[nH]2)cc1 | inconclusive: 7.08 µM [activator, full curve] | –
29 | COc1cc2c(cc1NC(=O)c1ccc(C(C)(C)C)cc1)CCCC2 | inconclusive: 31.6 µM [activator, single point] | –
30 | COCCNC(=S)NNC(=O)c1ccc(-n2cnnn2)cc1 | inconclusive: 35.5 µM [activator, single point] | –
31 | CN1CCN(C2=Cc3ccccc3Sc3cc(F)c(Cl)cc32)CC1 | inconclusive: 35.5 µM [inhibitor, single point] | –
32 | CCOC(=O)C1CCCN(Cc2c(Cl)cccc2Cl)C1 (stereo not given) | – | inactive: 13.2%
33 | Cc1ccc(S(=O)(=O)NC(=O)NC2CCCCCCC2)cc1 | – | inactive: 24.7%
34 | Cn1c2ccccc2c(=O)c2c(=O)n(Cc3ccco3)c(COc3ccccc3)nc21 | inconclusive: 8.91 µM [activator, partial curve, poor fit] | –
35 | Cc1cc(C)c(C(=O)/C=C/C=C/c2ccccc2)c(=O)[nH]1 | inconclusive: 11.2 µM [activator, single point] | –
36 | CC(=O)c1ccc(NC(=O)CSc2ccsc2[N+](=O)[O-])cc1 | inconclusive: 0.708 µM [activator, full curve, poor fit] | –
37 | COC(=O)C1=C(C(=O)OC)SC(=C2C(=S)C(C)(C)N(C(=O)C(C)C)c3ccccc32)S1 | inconclusive: 0.562 µM [inhibitor, full curve, poor fit] | –
38 | CCN(CC)S(=O)(=O)c1ccc(C)c(NC(=O)/C=C/c2cccs2)c1 | inconclusive: 22.4 µM [inhibitor, single point] | –
39 | O=C(/C=C/c1cc([N+](=O)[O-])ccc1OC(F)F)Nc1ccc(OC(F)F)cc1 | inconclusive: 0.501 µM [activator, partial curve, poor fit] | –
40 | CC(=O)Oc1ccc2ccccc2c1C(NC(=O)Cc1ccccc1)c1ccccc1Cl (stereo not given) | inconclusive: 35.5 µM [inhibitor, single point] | –
41 | CN(/N=C/c1ccc(O)cc1O)c1nc(-c2ccccc2)cc(-c2ccccc2)n1 | – | inactive: 5.28%
42 | COc1ccc(OCC(=O)N2CCN(C(=O)COc3ccc(Br)cc3)CC2)cc1 | – | inactive: -4.42%
43 | O=S(=O)(c1ccc(Cl)nc1)N1CCN(Cc2ccc3c(c2)OCO3)CC1 | – | inactive: 4.6%
44 | CCNc1ncnc2c1cnn2C | – | inactive: -13%
45 | S=c1[nH]cc(-c2ccccc2)n1-c1ccccc1Cl | – | inactive: -6.47%
46 | CC(Oc1ccc(-c2ccccc2)c(F)c1)c1ccn(S(=O)(=O)c2ccc(F)cc2)n1 (stereo not given) | inconclusive: 15.8 µM [inhibitor, single point] | –
47 | CCN(CC)c1ccc(/C=C(\C#N)c2ccccn2)cc1 | inconclusive: 8.91 µM [inhibitor, partial curve] | –
48 | Cc1ccccc1NC(=O)c1cc(C(=O)c2cc(Cl)ccc2O)cn(-c2ccccc2C)c1=O | active: 15.8 µM | –

Filtered by structure, those above containing bromine (three)
Row | Structure (SMILES) | Potency | activity change, negative = inhibition
5 | Cc1cc(C)n(Cc2ccc(NC(=O)c3ccc(COc4ccccc4Br)cc3)cc2)n1 | inconclusive: 25.1 µM [inhibitor, single point] | –
23 | NC(=S)N/N=C/c1coc2ccc(Br)cc2c1=O | inconclusive: 2.24 µM [inhibitor, partial curve] | –
42 | COc1ccc(OCC(=O)N2CCN(C(=O)COc3ccc(Br)cc3)CC2)cc1 | – | inactive: -4.42%

Going on with the list:

Row | Structure (SMILES) | Potency | activity change, negative = inhibition
49 | O=C1CCNc2cc3ccccc3cc21 | inconclusive: 5.62 µM [inhibitor, partial curve, poor fit] | –
50 | COc1ccc(S(=O)(=O)N[C@@H](Cc2ccc(Cl)cc2)C(=O)N2CC[C@@]3(O)CCCC[C@H]3C2)cc1 | inconclusive: 2.82 µM [activator, full curve, poor fit] | –
51 | COc1nc(/C=C/N(C)C)c([N+](=O)[O-])c(OC)n1 | – | inactive: -6.27% [at 9.22 µM]
52 | C/C(CC(=O)NCC(C)C)=N\NC(=O)COc1cc(C)c(Br)cc1Br | – | inactive: -5.81%
53 | CCCn1nnc(NC(=O)c2ccc3ccccc3c2)n1 | inconclusive: 20 µM [inhibitor, single point] | –
54 | Cc1cc(S(=O)(=O)Nc2ccc3ccccc3c2)c(C)s1 | inconclusive: 11.2 µM [inhibitor, partial curve] | –
55 | CC1=NNC(=O)/C1=C\c1cn(-c2ccccc2)nc1-c1ccc(Cl)cc1 | inconclusive: 35.5 µM [inhibitor, single point] | –
56 | O=[N+]([O-])c1cc(Oc2cccnc2)cc([N+](=O)[O-])c1 | inconclusive: 22.4 µM [inhibitor, single point] | –
57 | O=c1oc2ccccc2c(N2CCCCC2)c1CN1CCCCC1 | inconclusive: 35.5 µM [inhibitor, single point] | –
58 | Cc1ccc(CN2CN(S(=O)(=O)c3cccs3)c3nc4ccccc4nc32)cc1 | inconclusive: 35.5 µM [inhibitor, single point] | –
59 | N=c1ccn(Cc2ccccc2Cl)cc1 | inconclusive: 8.91 µM [inhibitor, partial curve] | –
60 | CN(Cc1nc2ccccc2c(=O)[nH]1)Cc1nc2ccsc2c(=O)[nH]1 | inconclusive: 20 µM [inhibitor, single point] | –
61 | Cc1ccc(NC(=O)c2ccc(Cn3cc(Br)cn3)o2)cc1 | inconclusive: 17.8 µM [inhibitor, single point] | –
62 | Clc1ccccc1C1=CC(c2ccco2)n2nnnc2N1 (stereo not given) | – | inactive: -1.93% [at 9.22 µM]
63 | O=C(N/N=C/c1ccccn1)c1cc(-c2ccc(Cl)cc2)nc2ccccc12 | inconclusive: 8.91 µM [inhibitor, partial curve] | –
64 | O=C(Nc1ccc(-c2nc3c(ccc4ccccc43)o2)cc1)c1ccco1 | inconclusive: 35.5 µM [activator, partial curve, poor fit] | –
65 | N#C/C(=C/c1ccc(Sc2nc3ccccc3[nH]2)o1)c1ccccc1F | active: 11.2 µM | –
66 | COc1cc(/C=C(\CC(=O)O)c2nc3ccccc3s2)cc(OC)c1O | inconclusive: 35.5 µM [activator, single point] | –
67 | c1nc(N2CCCCC2)c2[nH]cnc2n1 | inconclusive: 10 µM [inhibitor, partial curve] | –
68 | CCC(C)(C)C1CCC(=NNC(=O)c2ccoc2C)CC1 (stereo not given) | inconclusive: 35.5 µM [inhibitor, single point] | –
69 | COc1ccc(-c2nc3ccccc3n2Cc2ccccc2)cc1 | inconclusive: 25.1 µM [inhibitor, single point] | –
70 | COc1ccccc1NS(=O)(=O)c1cc(NC(=O)CCC2CCCC2)ccc1N1CCOCC1 | inconclusive: 11.2 µM [activator, partial curve] | –
